Results: patent publication US6420362B1, “Azines containing the 5,6-di-hydro-(1,4,2) dioxazine-3-yl group and the use thereof as fungicides” (priority 1997, dated 2002)
Some entries share one result that the patent states for a list of compounds.

System: Phytophthora infestans
Type: in vivo
Settings: tomato, protective spray, 100 g/hectare, evaluation 3 days after inoculation

CON=C(C1=NOCCO1)c1ccccc1C=NN=C(C)c1cccc(C(F)(F)F)c1 [Example 1, (5,6-dihydro-[1,4,2]dioxazin-3-yl)-(2-{[1-(3-trifluoromethylphenyl)-ethylidene]-hydrazonomethyl}-phenyl)-methanone O-methyl oxime]
Degree of action in %: up to 91%
